Results are given in words; binding and its absence hold for the method and conditions named. Binding seen in cells or lysates may run through a third protein. A result given as binding can be weak or reduced; the word gives no strength. Where a sequence is shown, tags or fusion partners need not be part of it.
B1: FLAG-full length RITA (RBP-J interacting and tubulin-associated protein) (protein, UniProt Q96K30 1-269)
chain: MKTPVELAVSGMQTLGLQHRCRGGYRVKARTSYVDETLFGSPAGTRPTPPDFDPPWVEKANRTRGVGKEASKALGAKGSCETTPSRGSTPTLTPRKKNKYRPISHTPSYCDESLFGSRSEGASFGAPRMAKGDAAKLRALLWTPPPTPRGSHSPRPREAPLRAIHPAGPSKTEPGPAADSQKLSMGGLHSSRPLKRGLSHSLTHLNVPSTGHPATSAPHTNGPQDLRPSTSGVTFRSPLVTSRARSVSISVPSTPRRGGATQKPKPPWK

Columns and labels:
[1] = target: T1, FLAG-full length RITA (RBP-J interacting and tubulin-associated protein) (UniProt Q96K30); assay: co-IP; HEK293T transfected with FLAG vector or FLAG-RITA for 48 h, treated with DMSO, 10 µM nocodazole or 10 µM paclitaxel for 30 min; lysates precipitated with anti-FLAG agarose beads at 4°C overnight; Western blot
T1 sequence: B1 chain

[2] = target: tubulin (human (endogenous in HEK293T)); assay: co-IP; HEK293T transfected with FLAG vector or FLAG-RITA for 48 h; lysates precipitated with mouse monoclonal anti-α-tubulin antibody and Protein G Sepharose at 4°C overnight; Western blot with PRC1 and FLAG antibodies; also after DMSO, 10 µM nocodazole or 10 µM paclitaxel for 30 min (lysis in RIPA buffer with the same agent)

Molecule	binding [1]	binding [2]
tubulin (human (endogenous in HEK293T))	binds	–
B1	–	binds

— article PMC11747798
